Laboratory results taken from article PMC6451435.
No constants are given. Whether binding was seen depends on the method and setting. In cells and extracts the contact can be indirect. Some binding calls cover weakened binding; strength is not graded here.

Chains of the proteins cited; added tags and fusions are not shown.
UniProt P35222: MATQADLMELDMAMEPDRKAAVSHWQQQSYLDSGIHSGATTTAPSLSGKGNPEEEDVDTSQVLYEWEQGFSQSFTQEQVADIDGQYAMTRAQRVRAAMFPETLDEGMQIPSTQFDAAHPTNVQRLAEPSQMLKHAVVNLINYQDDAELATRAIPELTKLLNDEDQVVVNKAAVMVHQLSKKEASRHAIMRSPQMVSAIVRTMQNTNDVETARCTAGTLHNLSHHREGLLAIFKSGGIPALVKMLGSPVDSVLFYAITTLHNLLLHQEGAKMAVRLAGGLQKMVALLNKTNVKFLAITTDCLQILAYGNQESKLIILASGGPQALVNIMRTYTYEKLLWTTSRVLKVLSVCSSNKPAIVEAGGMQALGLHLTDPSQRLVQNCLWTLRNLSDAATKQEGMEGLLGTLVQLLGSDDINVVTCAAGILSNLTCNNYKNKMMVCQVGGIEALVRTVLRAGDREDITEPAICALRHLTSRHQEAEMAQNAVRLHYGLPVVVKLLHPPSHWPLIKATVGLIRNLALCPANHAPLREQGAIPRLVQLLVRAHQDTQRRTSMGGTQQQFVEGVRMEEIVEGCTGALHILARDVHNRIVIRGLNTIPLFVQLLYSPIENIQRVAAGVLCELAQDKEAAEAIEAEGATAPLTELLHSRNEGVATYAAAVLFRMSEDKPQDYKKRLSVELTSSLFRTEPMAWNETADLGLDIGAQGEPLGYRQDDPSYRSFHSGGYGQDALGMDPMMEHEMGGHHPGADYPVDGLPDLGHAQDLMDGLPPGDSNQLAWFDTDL

T1: B-cell lymphoma 3 (BCL-3) (human (endogenous in SW1463 and SW620)) (UniProt P20749)
T1 sequence: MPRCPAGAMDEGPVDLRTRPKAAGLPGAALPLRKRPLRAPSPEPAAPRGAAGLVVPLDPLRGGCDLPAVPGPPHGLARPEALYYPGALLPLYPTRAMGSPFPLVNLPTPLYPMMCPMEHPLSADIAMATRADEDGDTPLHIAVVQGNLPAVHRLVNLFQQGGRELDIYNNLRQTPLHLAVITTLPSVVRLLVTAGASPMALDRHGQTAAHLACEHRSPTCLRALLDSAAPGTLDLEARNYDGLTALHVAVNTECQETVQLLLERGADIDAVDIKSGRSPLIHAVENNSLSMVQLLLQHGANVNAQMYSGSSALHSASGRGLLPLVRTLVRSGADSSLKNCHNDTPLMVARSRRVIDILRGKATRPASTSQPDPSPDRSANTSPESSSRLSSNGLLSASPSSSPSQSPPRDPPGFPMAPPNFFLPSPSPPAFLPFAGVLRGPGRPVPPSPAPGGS

B1: B-cell lymphoma 3 (BCL-3) (protein, UniProt P20749 1-454)
chain: T1 sequence

How the values were obtained:
[1] = biological target: T1, B-cell lymphoma 3 (BCL-3) (human (endogenous in SW1463 and SW620)); experiment: co-IP; BCL-3 immunoprecipitated with anti-BCL-3 antibody on Dynabeads Protein A from 500 µg SW1463 nuclear-enriched lysate pre-cleared with rabbit pan-IgG; cells untreated or treated with 100 ng/ml TNF-α for 6 h before lysis; western blot
[2] = biological target: β-catenin (human (endogenous in SW1463 and SW620)) (UniProt P35222); experiment: co-IP; nuclear β-catenin Co-IP in SW620 cells, non-treated and treated with TNF-α for 6 h; mouse pan-IgG as negative control; western blot

Row | Molecule | binding [1] | binding [2]
1 | β-catenin (from UniProt P35222 1-781) | binds | –
2 | B1 | – | binds
